This passage reports binding signal results from paper PMC5996148.

Values joined by “and” are separate entries in the source; they are usually repeats but may differ in a detail not shown here. Identical values can stand only once. Some of the results follow. For some of these results: The source does not settle which construct or isoform was used.

Test in all cases: protein microarray (ProtoArray v5.0), streptavidin-Alexa Fluor 647
Common to all, as to details: 3'-biotin; 20 mM Tris (pH 7.5), 5 mM MgCl2, 100 mM KCl, 0.1% Tween-20, A/T-rich and random oligonucleotide blockers; temperature not stated; high values mean tight binding

Assay [1] relates to SLC25A46 (human).
Assay [2] deals with SLC26A2 (human).
In assay [3] the test system is SLC2A5 (human).
Assay [4] has as its system SLC30A5 (human).
The target of assay [5] is T1, SLC31A2 (UniProt O15432).
T1 sequence: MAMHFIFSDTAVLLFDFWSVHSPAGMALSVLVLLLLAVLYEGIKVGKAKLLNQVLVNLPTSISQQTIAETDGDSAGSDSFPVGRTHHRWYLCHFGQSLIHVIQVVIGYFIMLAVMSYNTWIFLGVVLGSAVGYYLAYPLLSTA

The test system of assay [6] is SLC35B3 (human).
Assay [7] deals with SLC38A3 (human).
Assay [8] relates to SLC39A1 (human).
In assay [9] the test system is SLC40A1 (human).
The subject of assay [10] is SLC6A6 (human).

On to “GGGAGGCTGAGGCAGG [G4-1 biotinylated (PQS2)]”, for which the binding signal in [1] was -0.326 z-score; in [2] it was -0.348 z-score; in [3], -0.325 z-score and -0.349 z-score; in [4] it was -0.288 z-score; in assay [5], -0.313 z-score; in [6], -0.276 z-score. The binding signal in [7] is -0.312 z-score; in assay [8] it was -0.326 z-score; in assay [9] it was -0.314 z-score; in assay [10], -0.251 z-score.
